# Results taken from paper PMC6618013.
# B1: toll‐like receptor 4 (TLR4) (receptor, UniProt Q9QX05 26-835)
# chain: NPCIEVLPNITYQCMDQNLSKIPHDIPYSTKNLDLSFNPLKILRSYSFTNFSQLQWLDLSRCEIETIEDKAWHGLNQLSTLVLTGNPIKSFSPGSFSGLTNLENLVAVETKMTSLEGFHIGQLISLKKLNVAHNLIHSFKLPEYFSNLTNLEHVDLSYNYIQTISVKDLQFLRENPQVNLSLDLSLNPIDSIQAQAFQGIRLHELTLRSNFNSSNVLKMCLQNMTGLHVHRLILGEFKNERNLESFDRSVMEGLCNVSIDEFRLTYINHFSDDIYNLNCLANISAMSFTGVHIKHIADVPRHFKWQSLSIIRCHLKPFPKLSLPFLKSWTLTTNREDISFGQLALPSLRYLDLSRNAMSFRGCCSYSDFGTNNLKYLDLSFNGVILMSANFMGLEELEYLDFQHSTLKKVTEFSVFLSLEKLLYLDISYTNTKIDFDGIFLGLISLNTLKMAGNSFKDNTLSNVFTNTTNLTFLDLSKCQLEQISRGVFDTLYRLQLLNMSHNNLLFLDPSHYKQLYSLRTLDCSFNRIETSKGILQHFPKSLAVFNLTNNSVACICEYQNFLQWVKDQKMFLVNVEQMKCASPIDMKASLVLDFTNSTCYIYKTIISVSVVSVLVVATVAFLIYHFYFHLILIAGCKKYSRGESIYDAFVIYSSQNEDWVRNELVKNLEEGVPRFQLCLHYRDFIPGVAIAANIIQEGFHKSRKVIVVVSRHFIQSRWCIFEYEIAQTWQFLSSRSGIIFIVLEKVEKSLLRQQVELYRLLSRNTYLEWEDNALGRHIFWRRLKKALLDGKALNPDETSEEEQEATTLT
# Target: myeloid differentiation protein 2 (MD2) (rat (endogenous in rat peritoneal macrophages))
# Experiment: co-IP; macrophages treated with LPS (100 ng/ml) and 3 µg/ml gCTRP9, MD2‐neutralizing antibody (100 ng/ml) or vehicle for 15 min; cell extracts precipitated with anti‐MD2 (blot for TLR4) or anti‐TLR4 (blot for MyD88), protein A magnetic beads, 4°C overnight
binder,measurement,value
B1,binding,binds

# These are yes or no findings as the source states them, for the method shown. In cells and extracts the contact can be indirect. A result given as binding can be weak or reduced; the word gives no strength.
